Data taken from publication PMC4032982.
These are yes or no findings as the source states them, for the method shown. Binding seen in cells or lysates may run through a third protein.

T1: AKINβγ (Arabidopsis thaliana (endogenous in leaves)) (UniProt Q944A6)
T1 sequence: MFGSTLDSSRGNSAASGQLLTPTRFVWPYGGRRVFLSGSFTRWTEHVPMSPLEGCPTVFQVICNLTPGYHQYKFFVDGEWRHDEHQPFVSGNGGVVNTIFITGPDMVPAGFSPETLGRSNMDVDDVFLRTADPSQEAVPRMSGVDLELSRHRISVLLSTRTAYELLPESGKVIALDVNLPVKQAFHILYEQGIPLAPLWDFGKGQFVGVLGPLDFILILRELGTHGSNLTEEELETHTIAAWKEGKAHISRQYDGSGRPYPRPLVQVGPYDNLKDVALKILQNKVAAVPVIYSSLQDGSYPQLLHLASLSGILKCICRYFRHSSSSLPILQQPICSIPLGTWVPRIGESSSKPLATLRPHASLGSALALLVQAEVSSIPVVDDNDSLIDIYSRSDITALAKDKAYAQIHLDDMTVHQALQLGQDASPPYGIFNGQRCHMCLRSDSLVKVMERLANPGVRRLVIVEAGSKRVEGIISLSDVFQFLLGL

B1: AKINβ2 (protein, UniProt Q9SCY5 1-289)
chain: MGNVNAREEANSNNASAVEDEDAEICSREAMSAASDGNHVAPPELMGQSPPHSPRATQSPLMFAPQVPVLPLQRPDEIHIPNPSWMQSPSSLYEEASNEQGIPTMITWCHGGKEIAVEGSWDNWKTRSRLQRSGKDFTIMKVLPSGVYEYRFIVDGQWRHAPELPLARDDAGNTFNILDLQDYVPEDIQSISGFEPPQSPENSYSNLLLGAEDYSKEPPVVPPHLQMTLLNLPAANPDIPSPLPRPQHVILNHLYMQKGKSGPSVVALGSTHRFLAKYVTVVLYKSLQR
B2: AKINβ1 (protein, UniProt Q84VQ1 1-283)
chain: MGNANGKDEDAAAGSGGADVTSSSARSNGGDPSARSRHRRPSSDSMSSSPPGSPARSPSPFLFAPQVPVAPLQRANAPPPNNIQWNQSQRVFDNPPEQGIPTIITWNQGGNDVAVEGSWDNWRSRKKLQKSGKDHSILFVLPSGIYHYKVIVDGESKYIPDLPFVADEVGNVCNILDVHNFVPENPESIVEFEAPPSPDHSYGQTLPAAEDYAKEPLAVPPQLHLTLLGTTEETAIATKPQHVVLNHVFIEQGWTPQSIVALGLTHRFESKYITVVLYKPLTR
B3: AKINγ (protein, UniProt Q8LBB2 1-424)
chain: MATVPEIKIMRSESLGHRSDVSSPEAKLGMRVEDLWDEQKPQLSPNEKLNACFESIPVSAFPLSSDSQDIEIRSDTSLAEAVQTLSKFKVLSAPVVDVDAPEDASWIDRYIGIVEFPGIVVWLLHQLEPPSPRSPAVAASNGFSHDFTTDVLDNGDSAVTSGNFFEVLTSSELYKNTKVRDISGTFRWAPFLALQKENSFLTMLLLLSKYKMKSIPVVDLGVAKIENIITQSGVIHMLAECAGLLWFEDWGIKTLSEVGLPIMSKDHIIKIYEDEPVLQAFKLMRRKRIGGIPVIERNSEKPVGNISLRDVQFLLTAPEIYHDYRSITTKNFLVSVREHLEKCGDTSAPIMSGVIACTKNHTLKELILMLDAEKIHRIYVVDDFGNLEGLITLRDIIARLVHEPSGYFGDFFDGVMPLPENYRV

biological target: T1, AKINβγ (Arabidopsis thaliana (endogenous in leaves)); experiment: co-sedimentation; 40 μg desalted soluble leaf protein incubated with 5 mg starch granules or 10 mg amylose/amylopectin mixture (A/A) in 50 mM Tris-HCl pH 7.5, 30 min at 4°C; pellet collected at 5000 × g, washed, and blotted with antibodies against the SnRK1 subunits

binding, no binding:
B1
B2
B3
